Taken from: PubChem BioAssay AID1159595 (NIAID, 2016)

- Aim: 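Which toll-like receptor pathway genes macrophages need for Pam3CSK4-induced Tnf promoter activity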 (primary screen)
- Cells: mouse RAW264.7 macrophage reporter cells
- Reagent: single siRNA against mouse genes
- Time to read-out: assayed 48 to 72 hours after siRNA transfection; ligand applied for 16 hours
- Treatment: Pam3CSK4 (TLR2 ligand) for 16 hours before fixation; dose not given
- Measurement: 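Nuclear mCherry from a Tnf promoter reporter imaged after 16 h Pam3CSK4, 48–72 h post-transfection; background subtracted, plate median/MAD normalised, robust z-scores averaged over replicates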
- Scale: Tnf reporter z-score (replicate mean): higher = stronger Tnf promoter reporter signal than negative control wells
- Hit rule: 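Calls apply to single siRNAs, not genes: activity graded at absolute z of 1, 1.5, 2 and 2.5, and active means averaged z at or beyond ±1.5, i.e. activity score 50 or above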
- Calls: active = strong change (up or down); inactive = little change
The whole screen tested 756 reagents; below is a random part of them. 115 of them (15%) count as active. 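Active calls cover both lowered and raised reporter signal; each score refers to one siRNA rather than a whole gene.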 The numbers tell different reagents against one gene apart. No sequences are given here. Not stated in the record: the amount of reagent.

{"target gene":"Cyld","reagent no.":1,"Tnf reporter z-score (replicate mean)":-0.043,"call":"inactive"}
{"target gene":"Cyld","reagent no.":2,"Tnf reporter z-score (replicate mean)":-0.0645,"call":"inactive"}
{"target gene":"Cyld","reagent no.":3,"Tnf reporter z-score (replicate mean)":-0.0997,"call":"inactive"}
{"target gene":"Cyld","reagent no.":4,"Tnf reporter z-score (replicate mean)":0.158,"call":"inactive"}
{"target gene":"Cyld","reagent no.":5,"Tnf reporter z-score (replicate mean)":2.1,"call":"active"}
{"target gene":"Cyld","reagent no.":6,"Tnf reporter z-score (replicate mean)":0.904,"call":"inactive"}
{"target gene":"Peli1","reagent no.":1,"Tnf reporter z-score (replicate mean)":1.01,"call":"inactive"}
{"target gene":"Peli1","reagent no.":2,"Tnf reporter z-score (replicate mean)":0.271,"call":"inactive"}
{"target gene":"Peli1","reagent no.":3,"Tnf reporter z-score (replicate mean)":0.402,"call":"inactive"}
{"target gene":"Peli1","reagent no.":4,"Tnf reporter z-score (replicate mean)":1.89,"call":"active"}
{"target gene":"Peli1","reagent no.":5,"Tnf reporter z-score (replicate mean)":-0.313,"call":"inactive"}
{"target gene":"Peli1","reagent no.":6,"Tnf reporter z-score (replicate mean)":-1.15,"call":"inactive"}
{"target gene":"Pik3ca","reagent no.":1,"Tnf reporter z-score (replicate mean)":0.683,"call":"inactive"}
{"target gene":"Pik3ca","reagent no.":2,"Tnf reporter z-score (replicate mean)":0.667,"call":"inactive"}
{"target gene":"Pik3ca","reagent no.":3,"Tnf reporter z-score (replicate mean)":0.121,"call":"inactive"}
{"target gene":"Pik3ca","reagent no.":4,"Tnf reporter z-score (replicate mean)":-1.29,"call":"inactive"}
{"target gene":"Pik3ca","reagent no.":5,"Tnf reporter z-score (replicate mean)":-1.39,"call":"inactive"}
{"target gene":"Pik3ca","reagent no.":6,"Tnf reporter z-score (replicate mean)":1.44,"call":"inactive"}
{"target gene":"Mapk8","reagent no.":1,"Tnf reporter z-score (replicate mean)":2.19,"call":"active"}
{"target gene":"Mapk8","reagent no.":2,"Tnf reporter z-score (replicate mean)":1.09,"call":"inactive"}
{"target gene":"Mapk8","reagent no.":3,"Tnf reporter z-score (replicate mean)":0.144,"call":"inactive"}
{"target gene":"Mapk8","reagent no.":4,"Tnf reporter z-score (replicate mean)":-0.616,"call":"inactive"}
{"target gene":"Mapk8","reagent no.":5,"Tnf reporter z-score (replicate mean)":-1.07,"call":"inactive"}
{"target gene":"Mapk8","reagent no.":6,"Tnf reporter z-score (replicate mean)":-0.511,"call":"inactive"}
{"target gene":"Casp8","reagent no.":1,"Tnf reporter z-score (replicate mean)":0.132,"call":"inactive"}
{"target gene":"Casp8","reagent no.":2,"Tnf reporter z-score (replicate mean)":-1.1,"call":"inactive"}
{"target gene":"Casp8","reagent no.":3,"Tnf reporter z-score (replicate mean)":-0.224,"call":"inactive"}
{"target gene":"Casp8","reagent no.":4,"Tnf reporter z-score (replicate mean)":0.581,"call":"inactive"}
{"target gene":"Casp8","reagent no.":5,"Tnf reporter z-score (replicate mean)":1.15,"call":"inactive"}
{"target gene":"Casp8","reagent no.":6,"Tnf reporter z-score (replicate mean)":0.624,"call":"inactive"}
{"target gene":"Tlr4","reagent no.":1,"Tnf reporter z-score (replicate mean)":-0.325,"call":"inactive"}
{"target gene":"Tlr4","reagent no.":2,"Tnf reporter z-score (replicate mean)":0.405,"call":"inactive"}
{"target gene":"Tlr4","reagent no.":3,"Tnf reporter z-score (replicate mean)":0.163,"call":"inactive"}
{"target gene":"Tlr4","reagent no.":4,"Tnf reporter z-score (replicate mean)":0.142,"call":"inactive"}
{"target gene":"Tlr4","reagent no.":5,"Tnf reporter z-score (replicate mean)":0.661,"call":"inactive"}
{"target gene":"Tlr4","reagent no.":6,"Tnf reporter z-score (replicate mean)":0.405,"call":"inactive"}

An excerpt taken from the entries so far:
{"target gene":"Pik3ca","reagent no.":3,"Tnf reporter z-score (replicate mean)":0.121,"call":"inactive"}
{"target gene":"Pik3ca","reagent no.":4,"Tnf reporter z-score (replicate mean)":-1.29,"call":"inactive"}
{"target gene":"Pik3ca","reagent no.":5,"Tnf reporter z-score (replicate mean)":-1.39,"call":"inactive"}
